Assay results as given in US20130324704A1.
These are yes or no findings as the source states them, for the method shown. Some entries that bind do so weakly or less than the wild type. For part of these data: Sequences can lack the tags named with a protein.

T1: Mouse EGFL7 (mEGFL7-CB-His) (mouse) (UniProt Q9QXT5)
T1 sequence: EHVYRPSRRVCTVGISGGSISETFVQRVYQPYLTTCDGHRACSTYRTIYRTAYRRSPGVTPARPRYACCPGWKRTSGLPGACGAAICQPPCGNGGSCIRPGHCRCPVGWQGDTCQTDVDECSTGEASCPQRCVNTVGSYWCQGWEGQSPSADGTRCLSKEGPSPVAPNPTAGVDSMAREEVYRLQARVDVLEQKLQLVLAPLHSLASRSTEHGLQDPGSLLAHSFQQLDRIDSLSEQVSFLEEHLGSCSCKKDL

T2: Full length human EGFL7 (human) (UniProt Q9UHF1)
T2 sequence: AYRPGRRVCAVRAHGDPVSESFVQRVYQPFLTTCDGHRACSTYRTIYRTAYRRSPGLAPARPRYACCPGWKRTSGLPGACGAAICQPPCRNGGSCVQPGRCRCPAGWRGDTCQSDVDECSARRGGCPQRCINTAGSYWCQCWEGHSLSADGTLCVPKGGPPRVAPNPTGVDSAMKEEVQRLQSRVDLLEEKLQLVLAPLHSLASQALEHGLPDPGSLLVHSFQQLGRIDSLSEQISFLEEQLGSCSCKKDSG

B1: 18F7.v1 (18F7-graft), IgG (antibody, V domains shown)
VH: EVQLVESGGGLVQPGGSLRLSCAASGYTFIDYYMNWVRQAPGKGLEWVGDINLDNGGTHYNQKFKGRFTISRDNSKNTLYLQMNSLRAEDTAVYYCAREGVYHDYDDYAMDYWGQGTLVTVSS
VL: DIQMTQSPSSLSASVGDRVTITCRTSQSLVHINGITYLHWYQQKPGKAPKLLIYRVSNRFSGVPSRFSGSGSGTDFTLTISSLQPEDFATYYCSQSTHVPLTFGQGTKVEIKR
B2: 18F7.v9, IgG (antibody, V domains shown)
VH: EVQLVESGGGLVQPGGSLRLSCAASGYTFIDKYMNWVRQAPGKGLEWVGDINLDNGGTHYNQKFKGRFTISRDKSKNTAYLQMNSLRAEDTAVYYCAREGVYHDYDDYAMDYWGQGTLVTVSS
VL: DIQMTQSPSSLSASVGDRVTITCRTSQSLVHINGITYLHWYQQKPGKAPKLLIYRVSNRFSGVPSRFSGSGSGTDFTLTISSLQPEDFATYYCSQSTHVPLTFGQGTKVEIK
B3: 18F7.v7, IgG (antibody, V domains shown)
VH: EVQLVESGGGLVQPGGSLRLSCAASGYTFIDYYMNWVRQAPGKGLEWVGDINLDNGGTHYNQKFKGRFTISRDKSKNTAYLQMNSLRAEDTAVYYCAREGVYHDYDDYAMDYWGQGTLVTVSS
VL: DIQMTQSPSSLSASVGDRVTITCRTSQSLVHINGITYLHWYQQKPGKAPKLLIYRVSNRFSGVPSRFSGSGSGTDFTLTISSLQPEDFATYYCAQSTHVPLTFGQGTKVEIK
B4: 18F7.v5, IgG (antibody, V domains shown)
VH: EVQLVESGGGLVQPGGSLRLSCAASGYTFIDYYMNWVRQAPGKGLEWVGDINLDNGGTHYNQKFKGRFTISRDKSKNTAYLQMNSLRAEDTAVYYCAREGVYHDYDDYAMDYWGQGTLVTVSS
VL: DIQMTQSPSSLSASVGDRVTITCRTSQSLVHINGITYLHWYQQKPGKAPKLLIYRVSNRGSGVPSRFSGSGSGTDFTLTISSLQPEDFATYYCSQSTHVPLTFGQGTKVEIK
B5: 18F7.v3, IgG (antibody, name in Kabat numbering, V domains shown)
VH: EVQLVESGGGLVQPGGSLRLSCAASGYTFIDYYMNWVRQAPGKGLEWVGDINLDNGGTHYNQKFKGRFTISRDKSKNTAYLQMNSLRAEDTAVYYCAREGVYHDYDDYAMDYWGQGTLVTVSS
VL: DIQMTQSPSSLSASVGDRVTITCRTSQSLVHINGITYLHWYQQKPGKAPKLLIYRVSNRFSGVPSRFSGSGSGTDFTLTISSLQPEDFATYYCSQSTHVPLTFGQGTKVEIKR
B6: 18F7.v10, IgG (antibody, V domains shown)
VH: EVQLVESGGGLVQPGGSLRLSCAASGYTFIDYYMNWVRQAPGKGLEWVGDINLDNGGTHYNQKFKGRFTISRDKSKNTAYLQMNSLRAEDTAVYYCAREGVYHPYDDYAMDYWGQGTLVTVSS
VL: DIQMTQSPSSLSASVGDRVTITCRTSQSLVHINGITYLHWYQQKPGKAPKLLIYRVSNRFSGVPSRFSGSGSGTDFTLTISSLQPEDFATYYCSQSTHVPLTFGQGTKVEIK
B7: 18F7.v2, IgG (antibody, name in Kabat numbering, V domains shown)
VH: EVQLVESGGGLVQPGGSLRLSCAASGYTFIDYYMNWVRQAPGKGLEWVGDINLDNGGTHYNQKFKGRFTISRDKSKNTLYLQMNSLRAEDTAVYYCAREGVYHDYDDYAMDYWGQGTLVTVSS
VL: DIQMTQSPSSLSASVGDRVTITCRTSQSLVHINGITYLHWYQQKPGKAPKLLIYRVSNRFSGVPSRFSGSGSGTDFTLTISSLQPEDFATYYCSQSTHVPLTFGQGTKVEIKR
B8: 18F7.v6, IgG (antibody, V domains shown)
VH: EVQLVESGGGLVQPGGSLRLSCAASGYTFIDYYMNWVRQAPGKGLEWVGDINLDNGGTHYNQKFKGRFTISRDKSKNTAYLQMNSLRAEDTAVYYCAREGVYHDYDDYAMDYWGQGTLVTVSS
VL: DIQMTQSPSSLSASVGDRVTITCRTSQSLVHINGITYLHWYQQKPGKAPKLLIYRVSNRFSGVPSRFSGSGSGTDFTLTISSLQPEDFATYYCGQSTHVPLTFGQGTKVEIKR
B9: 18F7.v4, IgG (antibody, name in Kabat numbering, V domains shown)
VH: EVQLVESGGGLVQPGGSLRLSCAASGYTFIDYYMNWVRQAPGKGLEWVGDINLDNGGTHYNQKFKGRFTISRDKSKNTVYLQMNSLRAEDTAVYYCAREGVYHDYDDYAMDYWGQGTLVTVSS
VL: DIQMTQSPSSLSASVGDRVTITCRTSQSLVHINGITYLHWYQQKPGKAPKLLIYRVSNRFSGVPSRFSGSGSGTDFTLTISSLQPEDFATYYCSQSTHVPLTFGQGTKVEIKR
B10: 18F7.v8, IgG (antibody, V domains shown)
VH: EVQLVESGGGLVQPGGSLRLSCAASGYTFIDYYMNWVRQAPGKGLEWVGDINLDNGGTHYNQKFKGRFTISRDKSKNTAYLQMNSLRAEDTAVYYCAREGVYHDYDDYAMDYWGQGTLVTVSS
VL: DIQMTQSPSSLSASVGDRVTITCRTSQSLVHINGITYLHWYQQKPGKAPKLLIYRVSNRFSGVPSRFSGSGSGTDFTLTISSLQPEDFATYYCVQSTHVPLTFGQGTKVEIK
B11: 4F11.v1 Fab displayed on phage (Fab, V domains shown)
VH: EVQLVESGGGLVQPGGSLRLSCAASGHTFTTYGMSWVRQAPGKGLEWVGWINTHSGVPTYADDFKGRFTISRDNSKNTLYLQMNSLRAEDTAVYYCARLGSSAVDYWGQGTLVTVSS
VL: DIQMTQSPSSLSASVGDRVTITCKASQSVDYDGDSYMSWYQQKPGKAPKLLIYGASNLESGVPSRFSGSGSGTDFTLTISSLQPEDFATYYCQQNNEDPYTFGQGTKVEIKR
B12: 18F7-graft Fab displayed on phage (Fab, V domains shown)
VH: EVQLVESGGGLVQPGGSLRLSCAASGYTFIDYYMNWVRQAPGKGLEWVGDINLDNGGTHYNQKFKGRFTISRDNSKNTLYLQMNSLRAEDTAVYYCAREGVYHDYDDYAMDYWGQGTLVTVSS
VL: DIQMTQSPSSLSASVGDRVTITCRTSQSLVHINGITYLHWYQQKPGKAPKLLIYRVSNRFSGVPSRFSGSGSGTDFTLTISSLQPEDFATYYCSQSTHVPLTFGQGTKVEIKR

The binders below were run against T1, Mouse EGFL7 (mEGFL7-CB-His) (mouse) (assay: SPR (Biacore)).

Row | Binder | binding
1 | B1 | binds
2 | B2 | binds
3 | B3 | binds
4 | B4 | binds
5 | B5 | binds
6 | B6 | binds
7 | B7 | binds
8 | B8 | binds
9 | B9 | binds
10 | B10 | binds

What follows are binders tested against T2, Full length human EGFL7 (human) (assay: phage binding to antigen immobilized on microtiter plate).

Row | Binder | binding
11 | B11 | binds
12 | B12 | binds
